This experiment addresses GST-tagged N-terminal domain of LANA (1-435 amino acids) (KSHV) (UniProt Q9QR71). Put plainly: pull-down; only the target purified.

Protein sequences, listed by entry. Tags and fused reporters are not part of them. Residues count along the entry.
UniProt Q9QR71, residues 1-435: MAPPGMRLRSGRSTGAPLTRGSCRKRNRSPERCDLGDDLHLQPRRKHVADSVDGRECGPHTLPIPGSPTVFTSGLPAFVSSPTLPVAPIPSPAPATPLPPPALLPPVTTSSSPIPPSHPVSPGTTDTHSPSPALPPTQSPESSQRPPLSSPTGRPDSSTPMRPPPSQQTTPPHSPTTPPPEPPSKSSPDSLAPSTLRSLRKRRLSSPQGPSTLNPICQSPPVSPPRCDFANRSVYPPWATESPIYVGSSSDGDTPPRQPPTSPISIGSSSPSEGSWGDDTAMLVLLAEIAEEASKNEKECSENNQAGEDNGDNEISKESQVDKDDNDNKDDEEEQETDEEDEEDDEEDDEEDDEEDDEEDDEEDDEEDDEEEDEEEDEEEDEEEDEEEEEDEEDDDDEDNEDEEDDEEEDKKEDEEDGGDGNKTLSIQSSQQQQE
UniProt Q16665: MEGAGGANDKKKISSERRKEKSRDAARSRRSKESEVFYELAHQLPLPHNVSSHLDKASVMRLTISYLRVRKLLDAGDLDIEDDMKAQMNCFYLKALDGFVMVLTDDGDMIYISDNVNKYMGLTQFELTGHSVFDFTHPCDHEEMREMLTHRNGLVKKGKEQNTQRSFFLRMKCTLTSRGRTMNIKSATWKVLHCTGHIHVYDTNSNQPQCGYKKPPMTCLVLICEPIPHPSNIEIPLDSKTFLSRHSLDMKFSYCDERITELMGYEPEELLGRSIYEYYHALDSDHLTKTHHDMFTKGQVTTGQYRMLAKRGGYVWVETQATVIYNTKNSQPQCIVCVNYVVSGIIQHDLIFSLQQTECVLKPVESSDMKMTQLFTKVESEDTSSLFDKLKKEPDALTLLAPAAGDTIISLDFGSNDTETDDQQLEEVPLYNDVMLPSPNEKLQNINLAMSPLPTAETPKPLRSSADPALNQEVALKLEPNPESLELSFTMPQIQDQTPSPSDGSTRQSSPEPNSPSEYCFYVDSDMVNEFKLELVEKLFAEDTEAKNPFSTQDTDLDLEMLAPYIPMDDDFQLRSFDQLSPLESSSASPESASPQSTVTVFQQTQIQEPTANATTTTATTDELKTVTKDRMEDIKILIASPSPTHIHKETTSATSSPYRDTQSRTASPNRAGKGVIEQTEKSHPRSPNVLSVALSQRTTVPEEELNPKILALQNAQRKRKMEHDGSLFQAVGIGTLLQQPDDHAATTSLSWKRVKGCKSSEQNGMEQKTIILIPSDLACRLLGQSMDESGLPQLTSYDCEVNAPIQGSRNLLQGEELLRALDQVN

These are yes or no findings as the source states them, for the method shown. In cells and extracts the contact can be indirect. Some binding calls cover weakened binding; strength is not graded here.

Regarding Myc-HIF1α (from UniProt Q16665 1-826), the binding entry is listed as “binds”.

With “hypoxia inducible factor HIF1α, endogenous (from UniProt Q16665 1-826)”, the binding entry is given as “binds”.

For the origin of these results see publication PMC10790784.
